Assay results: PMC8325274
These are yes or no findings as the source states them, for the method shown. Binding seen in cells or lysates may run through a third protein. Some results given as binding are weak or reduced against the parent protein; the word gives no strength. Sequences can lack the tags named with a protein.

Target: TRIM28 with GST tag (human), Q13263
Assay: pull-down; GST-TRIM28 and HA-Flag tagged telosome/shelterin subunits co-transfected into HEK293T; NETN lysate, GST beads over 4 h, three washes with NETN, western blot
Conditions: remark: other sources report otherwise

binding: binds
B1: TRF1 with HA-Flag double tags, P54274 1-439 (protein)
chain: MAEDVSSAAPSPRGCADGRDADPTEEQMAETERNDEEQFECQELLECQVQVGAPEEEEEEEEDAGLVAEAEAVAAGWMLDFLCLSLCRAFRDGRSEDFRRTRNSAEAIIHGLSSLTACQLRTIYICQFLTRIAAGKTLDAQFENDERITPLESALMIWGSIEKEHDKLHEEIQNLIKIQAIAVCMENGNFKEAEEVFERIFGDPNSHMPFKSKLLMIISQKDTFHSFFQHFSYNHMMEKIKSYVNYVLSEKSSTFLMKAAAKVVESKRTRTITSQDKPSGNDVEMETEANLDTRKSVSDKQSAVTESSEGTVSLLRSHKNLFLSKLQHGTQQQDLNKKERRVGTPQSTKKKKESRRATESRIPVSKSQPVTPEKHRARKRQAWLWEEDKNLRSGVRKYGEGNWSKILLHYKFNNRTSVMLKDRWRTMKKLKLISSDSED
